PubChem BioAssay AID504744 – Drosophila RNAi Screening Center | 2011
The deposit covers about 23,000 reagents; below is an unselected part of those that have a named target and a result. In the full data, 98 (0.43%) got an active call. 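Only hit calls are given; the phospho-dAkt signals, z-scores and hit direction were not deposited.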 Reagents against one gene are numbered here. Names joined by + are all predicted targets of the reagent. No sequences are given here.

Aim: 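Identify dsRNAs that increase or decrease phospho-dAkt after insulin treatment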 (primary screen)
Cells: Drosophila Kc167 cells
Reagents: long dsRNA against Drosophila genes, 250 ng dsRNA per well of a 384-well plate
Duration: 3 days of knock-down, then overnight serum-free starvation before stimulation
Challenge: bovine insulin at 387 nM for 10 minutes after 12 h without serum
Detection: 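In-cell antibody fluorescence for phospho-dAkt in each well over DNA-dye signal, with log2 residuals expressed as z-scores adjusted for cell count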
Hit rule: 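Under insulin, a gene counts as a hit if the average z-score of two replicates lies above 2.5 or below -2.5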

CG13685 showed inactive. FASN2 (Fatty acid synthase 2) #1 showed inactive. For FASN2 (Fatty acid synthase 2) #2 the deposit lists inactive. With knock-down of Amacr (Alpha-methylacyl-CoA racemase), the screen gave inactive. Against CG7988 the deposit lists inactive. CG8562 gave inactive.

Against CG33493, the entry reads inactive. CG4467 gave inactive. With knock-down of CG31548, the screen gave inactive. Depletion of CG7006 resulted in: inactive. Parp1 (Poly-(ADP-ribose) polymerase 1) #1 gave inactive. Depletion of Parp1 (Poly-(ADP-ribose) polymerase 1) #2 resulted in: inactive.

For Parp1 (Poly-(ADP-ribose) polymerase 1) #3, the values are inactive. With knock-down of CG14689, the screen gave inactive. Rcc1 (Regulator of chromosome condensation 1) showed inactive. Against Snap24 (Synaptosomal-associated protein 24kDa), the values are inactive. CG33981 + fab1 showed inactive. For CG10907, the entry reads inactive.

RpL30 (Ribosomal protein L30) showed inactive. Silencing of pcx (pecanex) #1 gave: inactive. pcx (pecanex) #2 showed inactive. pcx (pecanex) #3 gave inactive. With knock-down of pcx (pecanex) #4, the record shows inactive. Knock-down of pcx (pecanex) #5 resulted in: inactive.

Knock-down of pcx (pecanex) #6 came out at: inactive.
